Reference: PubChem BioAssay AID1259425 (University of Nebraska Medical Center, 2018)
Screen: 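Find knockdowns that reproduce the gene expression pattern seen when KSR1 is lost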 (primary screen). Cells: HCT116 human colon cancer cells. Knock-down reagent: siRNA pool against human genes, 50 nM siRNA. Measured: 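mRNA of six signature genes measured together by branched-DNA assay after 50 nM siRNA pool, blank removed, divided by geometric mean of two housekeeping genes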. Reading the numbers: BNIP3L mRNA: higher = more BNIP3L transcript after knockdown; NDRG1 mRNA: higher = more NDRG1 transcript after knockdown; BNIP3 mRNA: higher = more BNIP3 transcript after knockdown; ALDOC mRNA: higher = more ALDOC transcript after knockdown; ACSL5 mRNA: higher = more ACSL5 transcript after knockdown.
The whole screen tested about 14,000 reagents; shown is a part drawn at random. No sequences are given here. Not stated in the record: the time to read-out.

| gene | BNIP3L mRNA, set 1 | NDRG1 mRNA, set 1 | BNIP3 mRNA, set 1 | ALDOC mRNA, set 1 | ACSL5 mRNA, set 1 |
| --- | --- | --- | --- | --- | --- |
| AARS1 | 0.229 | 0.0726 | 0.284 | 0.0326 | 0.106 |
| IL17A | 0.078 | 0.172 | 0.196 | 0.00962 | 0.115 |
| INHBE | 0.101 | 0.0724 | 0.301 | 0.0284 | 0.181 |
| MAP6D1 | 0.207 | 0.088 | 0.318 | 0.0596 | 0.359 |
| RNPC3 | 0.0427 | 0.17 | 0.264 | 0.0307 | 0.101 |
| CD70 | 0.0777 | 0.254 | 0.294 | 0.01 | 0.163 |
| RFPL1 | 0.0598 | 0.698 | 0.384 | 0.0186 | 0.34 |
| PARP12 | 0.138 | 0.0746 | 0.267 | 0.0292 | 0.157 |
| LDB3 | 0.0921 | 0.216 | 0.265 | 0.0262 | 0.109 |
| ABHD8 | 0.109 | 0.175 | 0.334 | 0.012 | 0.106 |
| ATP2A3 | 0.102 | 0.0674 | 0.22 | 0.0146 | 0.155 |
| RBM47 | 0.0787 | 0.249 | 0.39 | 0.0455 | 0.123 |
| MS4A7 | 0.109 | 0.339 | 0.342 | 0.0399 | 0.093 |
| CHRNA1 | 0.083 | 0.0853 | 0.238 | 0.0189 | 0.256 |
| MAGEA1 | 0.112 | 0.219 | 0.381 | 0.0212 | 0.156 |
| DBP | 0.0608 | 0.0517 | 0.231 | 0.00628 | 0.164 |
| CEP44 | 0.101 | 0.166 | 0.306 | 0.0422 | 0.215 |
| STOML1 | 0.105 | 0.269 | 0.311 | 0.0208 | 0.288 |
| ATRN | 0.0874 | 0.127 | 0.336 | 0.0325 | 0.142 |
| ROBO3 | 0.12 | 0.736 | 0.37 | 0.0117 | 0.221 |
| SLC6A13 | 0.121 | 0.172 | 0.246 | 0.0273 | 0.21 |
| NDUFV3 | 0.146 | 0.389 | 0.566 | 0.0417 | 0.26 |
| COL17A1 | 0.106 | 0.426 | 0.301 | 0.016 | 0.282 |
| DPP4 | 0.076 | 0.15 | 0.186 | 0.00536 | 0.142 |
| MKRN3 | 0.257 | 0.433 | 0.405 | 0.0559 | 0.198 |
| TCEA2 | 0.23 | 0.474 | 0.375 | 0.00698 | 0.185 |
| NOG | 0.108 | 0.327 | 0.264 | 0.0161 | 0.154 |
| ZFP37 | 0.162 | 0.166 | 0.117 | 0.00325 | 0.176 |
| GDE1 | 0.0849 | 0.287 | 0.334 | 0.0121 | 0.37 |
| TNFRSF17 | 0.0825 | 0.155 | 0.365 | 0.0164 | 0.172 |
| KDM5B | 0.0626 | 0.205 | 0.29 | 0.00964 | 0.179 |
| RFX3 | 0.0647 | 0.122 | 0.289 | 0.0194 | 0.215 |
| LRFN1 | 0.134 | 0.106 | 0.314 | 0.00905 | 0.143 |
| ZNF217 | 0.0847 | 0.56 | 0.266 | 0.0715 | 0.141 |
| CABLES2 | 0.215 | 0.467 | 0.466 | 0.0527 | 0.343 |
| STRBP | 0.0924 | 0.0987 | 0.314 | 0.024 | 0.176 |
| LY6G6C | 0.0782 | 0.142 | 0.236 | 0.0253 | 0.118 |
| RFPL2 | 0.084 | 0.365 | 0.192 | 0.0191 | 0.346 |
| ARFGAP1 | 0.0721 | 0.0563 | 0.241 | 0.0269 | 0.0875 |
| RCE1 | 0.0845 | 0.301 | 0.219 | 0.0442 | 0.348 |
| GAGE4 | 0.112 | 0.227 | 0.275 | 0.0287 | 0.201 |
| PROC | 0.0773 | 0.301 | 0.245 | 0.0145 | 0.126 |
| CADPS | 0.161 | 0.803 | 0.362 | 0.0262 | 0.233 |
| GPR55 | 0.34 | 0.274 | 0.261 | 0.112 | 0.282 |
| C6orf47 | 0.0934 | 0.227 | 0.478 | 0.0236 | 0.149 |
| ACOX1 | 0.0854 | 0.185 | 0.247 | 0.0117 | 0.117 |
| MLC1 | 0.235 | 0.0942 | 0.294 | 0.0257 | 0.0792 |
| TFAP4 | 0.0747 | 0.113 | 0.283 | 0.0182 | 0.0939 |
| XK | 0.144 | 0.172 | 0.411 | 0.0368 | 0.212 |
| CDH19 | 0.12 | 0.1 | 0.259 | 0.00682 | 0.125 |

In a second layout: 6 of the entries above
ROBO3 | BNIP3L mRNA, set 1: 0.12; NDRG1 mRNA, set 1: 0.736; BNIP3 mRNA, set 1: 0.37; ALDOC mRNA, set 1: 0.0117; ACSL5 mRNA, set 1: 0.221
SLC6A13 | BNIP3L mRNA, set 1: 0.121; NDRG1 mRNA, set 1: 0.172; BNIP3 mRNA, set 1: 0.246; ALDOC mRNA, set 1: 0.0273; ACSL5 mRNA, set 1: 0.21
NDUFV3 | BNIP3L mRNA, set 1: 0.146; NDRG1 mRNA, set 1: 0.389; BNIP3 mRNA, set 1: 0.566; ALDOC mRNA, set 1: 0.0417; ACSL5 mRNA, set 1: 0.26
COL17A1 | BNIP3L mRNA, set 1: 0.106; NDRG1 mRNA, set 1: 0.426; BNIP3 mRNA, set 1: 0.301; ALDOC mRNA, set 1: 0.016; ACSL5 mRNA, set 1: 0.282
DPP4 | BNIP3L mRNA, set 1: 0.076; NDRG1 mRNA, set 1: 0.15; BNIP3 mRNA, set 1: 0.186; ALDOC mRNA, set 1: 0.00536; ACSL5 mRNA, set 1: 0.142
MKRN3 | BNIP3L mRNA, set 1: 0.257; NDRG1 mRNA, set 1: 0.433; BNIP3 mRNA, set 1: 0.405; ALDOC mRNA, set 1: 0.0559; ACSL5 mRNA, set 1: 0.198
